# In the supplement of paper PMC10849652:
# Chains of the proteins cited; added tags and fusions are not shown. Lines headed by an entry give the natural chain unless they say otherwise; changes in a name come on top.
# UniProt O00401, whole entry, looked up: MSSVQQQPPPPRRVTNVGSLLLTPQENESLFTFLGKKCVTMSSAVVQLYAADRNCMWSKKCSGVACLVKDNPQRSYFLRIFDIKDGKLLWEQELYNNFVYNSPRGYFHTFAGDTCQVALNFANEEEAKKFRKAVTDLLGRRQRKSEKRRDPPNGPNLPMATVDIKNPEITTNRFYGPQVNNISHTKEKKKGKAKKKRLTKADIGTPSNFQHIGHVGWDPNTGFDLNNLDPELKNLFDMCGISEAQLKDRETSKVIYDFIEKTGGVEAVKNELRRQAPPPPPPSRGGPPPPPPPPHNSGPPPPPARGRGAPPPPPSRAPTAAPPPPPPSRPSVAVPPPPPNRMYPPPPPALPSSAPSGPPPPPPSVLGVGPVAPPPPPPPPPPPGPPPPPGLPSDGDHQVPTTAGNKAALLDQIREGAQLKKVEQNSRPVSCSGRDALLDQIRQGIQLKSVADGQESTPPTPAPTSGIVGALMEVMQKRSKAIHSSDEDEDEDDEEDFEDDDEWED
# UniProt P23381: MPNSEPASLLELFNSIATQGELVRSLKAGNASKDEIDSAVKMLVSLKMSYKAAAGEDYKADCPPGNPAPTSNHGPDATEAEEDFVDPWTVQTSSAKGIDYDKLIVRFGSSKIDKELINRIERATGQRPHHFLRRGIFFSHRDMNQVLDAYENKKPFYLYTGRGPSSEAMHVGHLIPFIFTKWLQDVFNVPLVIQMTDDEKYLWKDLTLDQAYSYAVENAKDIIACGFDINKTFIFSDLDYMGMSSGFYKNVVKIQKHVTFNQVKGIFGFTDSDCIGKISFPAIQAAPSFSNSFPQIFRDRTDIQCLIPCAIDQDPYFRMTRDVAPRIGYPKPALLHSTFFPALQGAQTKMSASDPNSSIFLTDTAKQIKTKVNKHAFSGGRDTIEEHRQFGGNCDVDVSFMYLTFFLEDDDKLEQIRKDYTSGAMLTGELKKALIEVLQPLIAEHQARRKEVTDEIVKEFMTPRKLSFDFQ
# UniProt Q8IWB7: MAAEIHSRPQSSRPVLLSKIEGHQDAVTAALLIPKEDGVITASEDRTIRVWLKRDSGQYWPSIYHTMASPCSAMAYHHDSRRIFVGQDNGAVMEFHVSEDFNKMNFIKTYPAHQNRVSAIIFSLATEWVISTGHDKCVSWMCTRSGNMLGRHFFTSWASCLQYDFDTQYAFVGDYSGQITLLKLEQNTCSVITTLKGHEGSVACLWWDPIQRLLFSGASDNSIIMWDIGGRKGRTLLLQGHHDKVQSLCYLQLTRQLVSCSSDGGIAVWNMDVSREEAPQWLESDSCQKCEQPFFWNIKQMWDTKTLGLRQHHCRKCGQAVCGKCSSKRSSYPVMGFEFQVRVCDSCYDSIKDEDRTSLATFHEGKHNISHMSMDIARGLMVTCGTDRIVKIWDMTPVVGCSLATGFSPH
# UniProt Q9NNW5: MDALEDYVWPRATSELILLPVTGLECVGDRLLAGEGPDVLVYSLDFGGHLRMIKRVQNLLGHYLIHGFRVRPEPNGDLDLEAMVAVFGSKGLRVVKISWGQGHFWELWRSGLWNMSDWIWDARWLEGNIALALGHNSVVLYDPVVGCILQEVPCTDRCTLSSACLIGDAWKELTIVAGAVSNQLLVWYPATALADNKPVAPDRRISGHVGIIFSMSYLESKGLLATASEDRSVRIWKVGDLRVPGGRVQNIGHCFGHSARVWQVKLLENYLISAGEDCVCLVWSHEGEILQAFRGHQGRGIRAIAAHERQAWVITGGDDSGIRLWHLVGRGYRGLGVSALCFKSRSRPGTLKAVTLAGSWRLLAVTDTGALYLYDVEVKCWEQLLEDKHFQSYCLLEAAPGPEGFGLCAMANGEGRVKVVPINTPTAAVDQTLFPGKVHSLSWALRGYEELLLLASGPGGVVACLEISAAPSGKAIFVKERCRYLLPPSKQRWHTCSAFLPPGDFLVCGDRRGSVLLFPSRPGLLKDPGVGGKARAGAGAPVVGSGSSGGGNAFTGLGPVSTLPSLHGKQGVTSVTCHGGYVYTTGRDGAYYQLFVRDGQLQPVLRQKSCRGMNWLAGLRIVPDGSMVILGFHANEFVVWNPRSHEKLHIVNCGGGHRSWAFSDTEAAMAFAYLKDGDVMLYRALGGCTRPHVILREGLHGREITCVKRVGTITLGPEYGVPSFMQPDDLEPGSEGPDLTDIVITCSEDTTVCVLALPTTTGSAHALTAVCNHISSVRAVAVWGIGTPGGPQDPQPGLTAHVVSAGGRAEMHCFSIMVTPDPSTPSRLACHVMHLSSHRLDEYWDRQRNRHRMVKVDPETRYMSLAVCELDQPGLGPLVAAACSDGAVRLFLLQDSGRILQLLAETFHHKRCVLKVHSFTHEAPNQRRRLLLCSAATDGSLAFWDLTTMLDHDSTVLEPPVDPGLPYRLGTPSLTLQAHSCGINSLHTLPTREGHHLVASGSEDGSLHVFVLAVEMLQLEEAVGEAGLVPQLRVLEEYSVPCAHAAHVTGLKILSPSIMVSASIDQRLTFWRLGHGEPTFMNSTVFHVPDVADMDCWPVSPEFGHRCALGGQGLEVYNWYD
# UniProt Q9BUR4: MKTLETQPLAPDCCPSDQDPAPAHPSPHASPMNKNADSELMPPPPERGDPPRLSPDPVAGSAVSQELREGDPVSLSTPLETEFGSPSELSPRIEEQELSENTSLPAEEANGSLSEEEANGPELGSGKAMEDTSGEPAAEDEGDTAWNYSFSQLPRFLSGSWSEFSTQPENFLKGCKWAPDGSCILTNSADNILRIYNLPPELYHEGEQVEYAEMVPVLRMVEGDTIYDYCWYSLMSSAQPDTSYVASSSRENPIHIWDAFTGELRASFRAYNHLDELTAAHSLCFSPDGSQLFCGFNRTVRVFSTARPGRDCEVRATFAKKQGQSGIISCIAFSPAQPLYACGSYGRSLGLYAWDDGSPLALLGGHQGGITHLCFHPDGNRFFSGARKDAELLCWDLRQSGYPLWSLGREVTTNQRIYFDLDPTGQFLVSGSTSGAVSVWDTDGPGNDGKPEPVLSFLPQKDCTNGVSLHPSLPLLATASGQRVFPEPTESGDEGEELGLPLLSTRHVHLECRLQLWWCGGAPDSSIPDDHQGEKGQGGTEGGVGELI
# UniProt P04004: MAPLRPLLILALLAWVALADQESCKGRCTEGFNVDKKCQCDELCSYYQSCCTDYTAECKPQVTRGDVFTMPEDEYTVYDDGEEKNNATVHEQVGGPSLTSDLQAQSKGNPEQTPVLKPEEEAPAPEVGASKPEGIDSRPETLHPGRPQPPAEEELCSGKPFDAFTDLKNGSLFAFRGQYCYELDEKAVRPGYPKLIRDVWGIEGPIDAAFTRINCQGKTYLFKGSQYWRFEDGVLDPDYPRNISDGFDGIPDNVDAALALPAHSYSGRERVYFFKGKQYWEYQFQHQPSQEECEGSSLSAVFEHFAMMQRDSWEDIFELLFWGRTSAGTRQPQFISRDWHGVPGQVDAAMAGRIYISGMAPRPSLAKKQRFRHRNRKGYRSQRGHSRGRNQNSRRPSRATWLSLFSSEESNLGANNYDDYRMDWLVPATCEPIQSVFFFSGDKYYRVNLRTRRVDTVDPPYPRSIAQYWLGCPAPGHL
# UniProt O75351, whole entry, looked up: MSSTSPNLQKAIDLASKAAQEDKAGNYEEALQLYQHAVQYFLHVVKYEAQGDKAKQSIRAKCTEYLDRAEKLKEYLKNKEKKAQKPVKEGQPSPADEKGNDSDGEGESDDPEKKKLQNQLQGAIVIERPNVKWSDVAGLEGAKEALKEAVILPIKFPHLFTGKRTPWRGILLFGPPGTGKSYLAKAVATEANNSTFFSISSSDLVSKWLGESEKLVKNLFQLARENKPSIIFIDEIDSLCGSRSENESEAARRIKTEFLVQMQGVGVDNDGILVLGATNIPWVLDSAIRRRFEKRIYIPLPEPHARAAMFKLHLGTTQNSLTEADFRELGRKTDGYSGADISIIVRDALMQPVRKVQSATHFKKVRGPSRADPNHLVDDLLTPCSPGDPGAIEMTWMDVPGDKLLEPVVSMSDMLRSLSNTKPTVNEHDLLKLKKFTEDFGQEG
# UniProt O00534: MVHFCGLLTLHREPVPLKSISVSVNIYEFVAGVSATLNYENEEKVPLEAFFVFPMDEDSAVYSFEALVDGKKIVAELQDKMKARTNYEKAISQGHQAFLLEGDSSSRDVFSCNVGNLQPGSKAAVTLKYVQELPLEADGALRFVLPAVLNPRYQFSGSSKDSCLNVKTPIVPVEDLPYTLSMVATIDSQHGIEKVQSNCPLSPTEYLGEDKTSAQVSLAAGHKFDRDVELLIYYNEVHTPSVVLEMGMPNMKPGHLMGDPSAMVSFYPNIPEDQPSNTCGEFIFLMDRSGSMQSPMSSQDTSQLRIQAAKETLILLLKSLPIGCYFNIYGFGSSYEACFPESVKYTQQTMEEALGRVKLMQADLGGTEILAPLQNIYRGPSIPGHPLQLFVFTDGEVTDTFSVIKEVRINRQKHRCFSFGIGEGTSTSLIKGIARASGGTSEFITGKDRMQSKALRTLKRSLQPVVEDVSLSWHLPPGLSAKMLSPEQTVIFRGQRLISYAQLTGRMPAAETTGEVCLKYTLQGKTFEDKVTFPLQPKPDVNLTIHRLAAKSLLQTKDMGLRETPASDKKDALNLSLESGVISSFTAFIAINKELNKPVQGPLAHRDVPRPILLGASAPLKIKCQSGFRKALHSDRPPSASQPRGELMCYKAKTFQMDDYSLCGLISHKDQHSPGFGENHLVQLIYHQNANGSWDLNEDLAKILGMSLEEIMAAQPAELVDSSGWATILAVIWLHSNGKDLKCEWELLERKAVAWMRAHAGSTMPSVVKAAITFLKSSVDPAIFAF
# UniProt O95785: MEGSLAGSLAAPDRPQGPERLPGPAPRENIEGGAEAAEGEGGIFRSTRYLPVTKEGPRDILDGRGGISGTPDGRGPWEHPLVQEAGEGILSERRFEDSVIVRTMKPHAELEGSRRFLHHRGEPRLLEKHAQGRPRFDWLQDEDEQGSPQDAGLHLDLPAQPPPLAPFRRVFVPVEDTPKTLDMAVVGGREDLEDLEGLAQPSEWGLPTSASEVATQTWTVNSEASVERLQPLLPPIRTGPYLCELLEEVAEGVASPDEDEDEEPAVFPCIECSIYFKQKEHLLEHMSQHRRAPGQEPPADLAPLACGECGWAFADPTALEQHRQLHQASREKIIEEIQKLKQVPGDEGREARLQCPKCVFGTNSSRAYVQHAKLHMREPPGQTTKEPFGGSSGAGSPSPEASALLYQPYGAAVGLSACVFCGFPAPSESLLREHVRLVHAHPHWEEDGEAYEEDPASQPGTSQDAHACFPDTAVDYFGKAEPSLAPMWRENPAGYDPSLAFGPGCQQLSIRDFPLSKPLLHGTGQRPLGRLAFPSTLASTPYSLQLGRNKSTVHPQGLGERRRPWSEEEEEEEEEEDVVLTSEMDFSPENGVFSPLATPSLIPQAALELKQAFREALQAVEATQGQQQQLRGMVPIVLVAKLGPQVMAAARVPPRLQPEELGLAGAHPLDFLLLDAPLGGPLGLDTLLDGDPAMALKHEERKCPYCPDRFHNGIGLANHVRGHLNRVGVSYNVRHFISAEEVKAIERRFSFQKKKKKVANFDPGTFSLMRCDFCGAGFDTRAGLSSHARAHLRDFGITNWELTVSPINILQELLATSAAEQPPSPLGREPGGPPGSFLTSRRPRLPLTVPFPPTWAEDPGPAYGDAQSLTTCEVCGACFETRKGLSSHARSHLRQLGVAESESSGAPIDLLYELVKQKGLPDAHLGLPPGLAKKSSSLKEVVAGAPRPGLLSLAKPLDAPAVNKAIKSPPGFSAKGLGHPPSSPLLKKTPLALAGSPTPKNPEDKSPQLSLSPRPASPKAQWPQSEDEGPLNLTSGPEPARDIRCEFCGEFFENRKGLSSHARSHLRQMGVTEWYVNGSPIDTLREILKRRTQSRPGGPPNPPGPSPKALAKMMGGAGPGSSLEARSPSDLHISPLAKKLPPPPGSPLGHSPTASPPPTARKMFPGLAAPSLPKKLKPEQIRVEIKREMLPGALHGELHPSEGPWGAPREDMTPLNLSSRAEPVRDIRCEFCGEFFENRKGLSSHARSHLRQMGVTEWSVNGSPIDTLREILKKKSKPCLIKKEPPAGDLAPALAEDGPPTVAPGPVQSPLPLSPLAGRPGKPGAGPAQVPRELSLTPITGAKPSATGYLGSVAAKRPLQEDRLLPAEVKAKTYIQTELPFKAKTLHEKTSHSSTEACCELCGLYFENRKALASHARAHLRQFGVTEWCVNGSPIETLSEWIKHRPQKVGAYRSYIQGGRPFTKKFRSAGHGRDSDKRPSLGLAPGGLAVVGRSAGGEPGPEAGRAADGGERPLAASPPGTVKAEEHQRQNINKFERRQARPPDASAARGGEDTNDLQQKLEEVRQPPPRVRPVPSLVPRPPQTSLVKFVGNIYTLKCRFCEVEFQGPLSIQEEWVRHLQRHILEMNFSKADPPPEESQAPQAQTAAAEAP
# The list shows a part of the results.
# Compound: Cc1cc(Nc2cc(N3CCN(C)CC3)nc(Sc3ccc(NC(=O)C4CC4)cc3)n2)n[nH]1 [tozasertib]
# Assay: log2 fold change, soluble protein after heating vs DMSO (PISA); higher = thermal stabilisation; K562 cells, 10 uM, 30 min; active = over 0.2 and 3.5 SD of the protein, either way, in both replicates (recomputed)
# Method in brief: (§1)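 K562 cells at 2×10^6 cells/mL were treated for 30 min with 10 μM compound, and aliquots were heated for 3 min over 48°C-58°C before pooling. Extraction used PBS with 0.5% NP-40 at 4°C, and soluble protein was the supernatant after 21,000xg for 90 min, measured by TMTpro 16plex LC-MS/MS with channel sums equalised. Thermal stability values, relative to control samples and from duplicates, are log2 fold changes.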
row,Target,log2 fold change
1,WDR36 (UniProt Q8NI36),inactive: -0.039
2,WDR44 (UniProt Q5JSH3),inactive: -0.027
3,WDR13 (UniProt Q9H1Z4),inactive: -0.002
4,WASL (UniProt O00401),inactive: -0.013
5,WDR74 (UniProt Q6RFH5),inactive: -0.027
6,WARS (UniProt P23381),inactive: -0.003
7,WASHC4 (UniProt Q2M389),inactive: 0.016
8,WDFY1 (UniProt Q8IWB7),inactive: -0.029
9,VPS13C (UniProt Q709C8),inactive: -0.006
10,WBP11 (UniProt Q9Y2W2),inactive: -0.008
11,WDR45B (UniProt Q5MNZ6),inactive: -0.021
12,VPS35 (UniProt Q96QK1),inactive: -0.025
13,WDR77 (UniProt Q9BQA1),inactive: -0.021
14,WDR5 (UniProt P61964),inactive: 0.017
15,WASF2 (UniProt Q9Y6W5),inactive: -0.044
16,VRK3 (UniProt Q8IV63),inactive: 0.149
17,WDR89 (UniProt Q96FK6),inactive: -0.04
18,WRAP73 (UniProt Q9P2S5),inactive: -0.065
19,VDAC3 (UniProt Q9Y277),inactive: -0.026
20,WDR6 (UniProt Q9NNW5),inactive: -0.039
21,WDR20 isoform 7 (UniProt Q8TBZ3),inactive: -0.06
22,WIPF3 (UniProt A6NGB9),inactive: 0.027
23,WRAP53 (UniProt Q9BUR4),inactive: -0.007
24,WDR45 (UniProt Q9Y484),inactive: 0.002
25,VTN (UniProt P04004),inactive: 0.01
26,VPS4B (UniProt O75351),inactive: -0.031
27,VWA5A (UniProt O00534),inactive: 0.027
28,WIZ (UniProt O95785),inactive: -0.064
29,WDR70 (UniProt Q9NW82),inactive: -0.005
30,WIPI1 (UniProt Q5MNZ9),inactive: 0.028

# Compound: Cc1cc(SCc2sc(-c3ccc(C(F)(F)F)cc3)nc2C)ccc1OCC(=O)O
# Assay: as above
# Method in brief: as §1
row,Target,log2 fold change
1,WDR61 (UniProt Q9GZS3),inactive: -0.017
2,WDR36 (UniProt Q8NI36),inactive: 0.037
3,WDR44 (UniProt Q5JSH3),inactive: -0.014
4,WDR13 (UniProt Q9H1Z4),inactive: -0.011
5,WASL (UniProt O00401),inactive: -0.067
6,WDR74 (UniProt Q6RFH5),inactive: -0.032
7,WASHC2A (UniProt Q641Q2),inactive: -0.047
8,WARS (UniProt P23381),inactive: 0.01
9,WASHC4 (UniProt Q2M389),inactive: 0.099
10,WDFY1 (UniProt Q8IWB7),inactive: 0
11,VPS13C (UniProt Q709C8),inactive: 0.011
12,WBP11 (UniProt Q9Y2W2),inactive: -0.011
13,WDR45B (UniProt Q5MNZ6),inactive: -0.001
14,VPS35 (UniProt Q96QK1),inactive: 0.034
15,WDR77 (UniProt Q9BQA1),inactive: -0.031
16,WDR5 (UniProt P61964),inactive: 0
17,WASF2 (UniProt Q9Y6W5),inactive: -0.025

row,Target,log2 fold change
1,WDR89 (UniProt Q96FK6),inactive: -0.019
2,WRAP73 (UniProt Q9P2S5),inactive: -0.015
3,VDAC3 (UniProt Q9Y277),inactive: -0.022
4,WDR6 (UniProt Q9NNW5),inactive: 0.048
5,WDR20 isoform 7 (UniProt Q8TBZ3),inactive: 0
6,WIPF3 (UniProt A6NGB9),inactive: -0.091
7,WRAP53 (UniProt Q9BUR4),inactive: 0.014
8,WDR45 (UniProt Q9Y484),inactive: -0.027
9,VTN (UniProt P04004),inactive: 0.009
10,VPS4B (UniProt O75351),inactive: 0.013
11,VWA5A (UniProt O00534),inactive: 0.008
12,WIZ (UniProt O95785),inactive: 0
13,VEZF1 (UniProt Q14119),inactive: 0.011
14,WDR34 (UniProt Q96EX3),inactive: 0.133
15,WDR70 (UniProt Q9NW82),inactive: 0.01
16,WIPI1 (UniProt Q5MNZ9),inactive: -0.012

# Compound: Cc1ccc(-n2nc(C(C)(C)C)cc2NC(=O)Nc2ccc(OCCN3CCOCC3)c3ccccc23)cc1 [doramapimod]
# Assay: as above
# Method in brief: as §1
row,Target,log2 fold change
1,WDR61 (UniProt Q9GZS3),inactive: -0.004
2,WDR36 (UniProt Q8NI36),inactive: 0.096
3,WDR44 (UniProt Q5JSH3),inactive: -0.015
4,WDR13 (UniProt Q9H1Z4),inactive: 0.017
5,WASL (UniProt O00401),inactive: -0.01
6,WDR74 (UniProt Q6RFH5),inactive: 0.145
7,WASHC2A (UniProt Q641Q2),inactive: 0.062
8,WARS (UniProt P23381),inactive: 0.019
9,WASHC4 (UniProt Q2M389),inactive: 0.018
10,WDFY1 (UniProt Q8IWB7),inactive: -0.027
11,VPS13C (UniProt Q709C8),inactive: 0
12,WBP11 (UniProt Q9Y2W2),inactive: -0.026
13,WDR45B (UniProt Q5MNZ6),inactive: -0.006
14,VPS35 (UniProt Q96QK1),inactive: -0.022
15,WDR77 (UniProt Q9BQA1),inactive: 0.012
16,WDR5 (UniProt P61964),inactive: 0.024
17,WASF2 (UniProt Q9Y6W5),inactive: 0.008

row,Target,log2 fold change
1,VRK3 (UniProt Q8IV63),inactive: 0.023
2,WDR89 (UniProt Q96FK6),inactive: 0
3,WRAP73 (UniProt Q9P2S5),inactive: -0.014
4,VDAC3 (UniProt Q9Y277),inactive: -0.012
5,WDR6 (UniProt Q9NNW5),inactive: 0.014
6,WDR20 isoform 7 (UniProt Q8TBZ3),inactive: 0.027
7,WIPF3 (UniProt A6NGB9),inactive: -0.011
8,WRAP53 (UniProt Q9BUR4),inactive: 0.008
9,WDR45 (UniProt Q9Y484),inactive: 0.012
10,VTN (UniProt P04004),inactive: 0.035
11,VPS4B (UniProt O75351),inactive: -0.015
12,VWA5A (UniProt O00534),inactive: -0.052
13,WIZ (UniProt O95785),inactive: 0.034
14,VEZF1 (UniProt Q14119),inactive: 0.167
15,WDR34 (UniProt Q96EX3),inactive: 0.037
16,WDR70 (UniProt Q9NW82),inactive: -0.029
17,WIPI1 (UniProt Q5MNZ9),inactive: 0.002
